Experimental data from patent publication US4016166A, “1-Nitrophenylquinazoline-2,4(1H,3H)-diones” (Hisamitsu Pharmaceutical Co., Inc., priority 1973, dated 1977).

System: righting reflex
Test: Central nervous system depressive effect (disappearance of righting reflex, mouse)
Format: in vivo, dd-strain male mice
Details: ip, read-out: CNS depressive effect (dose required for disappearance of righting reflex)
Method: Each test compound suspended in 0.5 % tragacanth-saline solution was injected intraperitoneally to dd-strain male mice (16-24 g). The disappearance of righting reflex was observed under noiseless circumstances. The dose required for the dissappearance of righting reflex is indicated with the following notations:
more than 1,000 (mg/kg) : -
less than 10 (mg/kg) : ++++

CN1C(=O)CN=C(c2ccccc2)c2cc(Cl)ccc21 [diazepam, reference compound]
minimal effective dose: 30 to 100 mg/kg
